Assay: Odour intensity of fragrance ingredient (olfactometry / typical dosage) used for grouping
Conditions: Table 3; odour intensity of ingredient (Low/Medium/High)

Row | Molecule | Ingredient intensity
1 | CC(=O)C1(C)CC2=C(CCCC2(C)C)CC1C (stereo not drawn) [1-(2,3,8,8-tetramethyl-1,2,3,4,5,6,7,8-octahydronaphthalen-2-yl)ethanone] | Low
2 | CC(=O)c1cc2c(cc1C)C(C)(C)C(C)CC2(C)C (stereo not drawn) [1-(3,5,5,6,8,8-hexamethyl-5,6,7,8-tetrahydronaphthalen-2-yl)ethanone] | Medium
3 | CCC(O)COC1CCCCC1C(C)(C)C (stereo not drawn) [1-((2-(tert-butyl)cyclohexyl)oxy)butan-2-ol] | Medium
4 | CC(=O)C1CC/C=C\C(C)C(C)/C=C\C/C=C/1C (stereo not drawn) [1-((2E,5Z,9Z)-2,7,8-trimethylcyclododeca-2,5,9-trien-1-yl)ethanone] | High
5 | CCCCOC(=O)C(C)OC(=O)CCC (stereo not drawn) [1-butoxy-1-oxopropan-2-yl butanoate] | Medium
6 | CC(C)=CCC(C)C1CC1(C)CO (stereo not drawn) [1-methyl-2-(5-methylhex-4-en-2-yl)cyclopropylmethanol] | Low
7 | CC1(CO)CC1CC1CC2CC2(C)C1(C)C (stereo not drawn) [1-methyl-2-((1,2,2-trimethylbicyclo[3.1.0]hexan-3-yl)methyl)cyclopropyl)methanol] | High
8 | CC(=O)c1ccccc1 [1-phenylethanone] | High
9 | c1ccc2[nH]ccc2c1 [1H-indole] | High
10 | CCCCCC1(C)CCC(C)(C)C1=O (stereo not drawn) [2,2,5-trimethyl-5-pentylcyclopentanone] | High
11 | Cc1ncsc1CCO [2-(4-Methyl-1,3-thiazol-5-yl)ethanoL] | High
12 | CC(=O)OCCC1=CCC2CC1C2(C)C (stereo not drawn) [2-(6,6-dimethylbicyclo[3.1.1]hept-2-en-2-yl)ethyl acetate] | Low
13 | CC(=O)OC1CCCCC1C(C)(C)C (stereo not drawn) [2-(tert-butyl)cyclohexyl acetate] | Low
14 | CCOc1cc(C)ccc1O [2-ethoxy-4-methylphenol] | High
15 | CC1CCC(C(C)C)C(O)C1 (stereo not drawn) [2-isopropyl-5-methylcyclohexanol] | Medium
16 | CCCc1ccc(O)c(OC)c1 [2-methoxy-4-propylphenol] | High
17 | CCCCCCCCCC(C)C=O (stereo not drawn) [2-methylundecanal] | Medium
18 | CC(C)=CCCC(C)CCO (stereo not drawn) [3,7-dimethyloct-6-en-1-ol] | Low
19 | CC(C)=CCCC(C)CC=O (stereo not drawn) [3,7-dimethyloct-6-enal] | High
20 | CC(C)CCCC(C)CCO (stereo not drawn) [3,7-dimethyloctan-1-ol] | High
21 | CC(CCO)CCCC(C)(C)O (stereo not drawn) [3,7-dimethyloctane-1,7-diol] | Medium
22 | Cc1cc(CC(C)C)ccc1CCC=O [3-(4-(2-methylpropyl)-2-methylphenyl)propanal] | Low
23 | CC(C=O)Cc1ccc(C(C)(C)C)cc1 (stereo not drawn) [3-(4-(tert-butyl)phenyl)-2-methylpropanal] | Low
24 | COc1ccc(CC(C)C=O)cc1 (stereo not drawn) [3-(4-methoxyphenyl)-2-methylpropanal] | Medium

Row | Molecule | Ingredient intensity
25 | Cc1occc(=O)c1O [3-hydroxy-2-methyl-4H-pyran-4-one] | Medium
26 | CC(=O)C(C)O (stereo not drawn) [3-hydroxybutan-2-one] | High
27 | CC(CCO)CCc1ccccc1 (stereo not drawn) [3-methyl-5-phenylpentan-1-ol] | Medium
28 | CC1COCc2cc3c(cc21)C(C)(C)C(C)C3(C)C (stereo not drawn) [4,6,6,7,8,8-hexamethyl-1,3,4,6,7,8-hexahydrocyclopenta[g]isochromene] | Medium
29 | C=CCc1ccc(O)c(OC)c1 [4-allyl-2-methoxyphenol] | High
30 | COc1cc(C=O)ccc1OC(=O)C(C)C [4-formyl-2-methoxyphenyl 2-methylpropanoate] | High
31 | COc1ccc(C=O)cc1 [4-methoxybenzaldehyde] | Low
32 | CCCCCCC1CCC(=O)O1 (stereo not drawn) [5-hexyloxolan-2-one] | Low
33 | CCCC1(C(C)(C)C)C=CC(C)O1 (stereo not drawn) [5-tert-butyl-2-methyl-5-propyl-2H-furan] | High
34 | CCCCCCCC1CCCC(=O)O1 (stereo not drawn) [6-heptyltetrahydro-2H-pyran-2-one] | Low
35 | CCC(C)(CCCC(C)C=O)OC (stereo not drawn) [6-methoxy-2,6-dimethyloctanal] | High
36 | CC(CC=O)CCCC(C)(C)O (stereo not drawn) [7-hydroxy-3,7-dimethyloctanal] | Medium
37 | CC(C)CCc1ccc2c(c1)OCC(=O)CO2 [7-isopentyl-2H-benzo[b][1,4]dioxepin-3(4H)-one] | High
38 | Cc1ccc2c(c1)OCC(=O)CO2 [8-methyl-1,5-benzodioxepin-3-one] | Medium
39 | CC1CCC2(CCC(=O)O2)CC1 (stereo not drawn) [8-methyl-1-oxaspiro[4.5]decan-2-one] | High
40 | CC1(C)[C@H]2CC[C@]1(C)C(=O)C2 [(1S,4S)-1,7,7-trimethylbicyclo[2.2.1]heptan-2-one] | High
41 | CC(=O)O[C@]1(C)CC[C@]23CC1C(C)(C)C2CC[C@@H]3C (stereo partly drawn) [(1S,6R,8aR)-1,4,4,6-tetramethyloctahydro-1H-5,8a-methanoazulen-6-yl acetate] | Low
42 | C/C=C/C(=O)/C(C)=C(\C)C(C)C [(2E,5E)-5,6,7-trimethylocta-2,5-dien-4-one] | High
43 | CC1=CC[C@H]2C(C1)C1CC2[C@@]2(C1)OC2C (stereo partly drawn) [(2R,8aS)-3′,6-dimethyl-3,4,4a,5,8,8a-hexahydro-1H-spiro[1,4-methanonaphthalene-2,2′-oxirane]] | Medium
44 | CC1(C)CCC[C@]2(C)[C@H]3CCO[C@]3(C)CC[C@@H]12 [(3aR,5aS,9aS,9bR)-3a,6,6,9a-tetramethyl-2,4,5,5a,7,8,9,9b-octahydro-1H-benzo[e][1]benzofuran] | Medium
45 | CC(C)C1CCC(CO)CC1 (stereo not drawn) [(4-isopropylcyclohexyl)methanol] | Medium
46 | CC(C)c1ccc(CO)cc1 [(4-isopropylphenyl)methanol] | High
47 | C/C(=C\CCC=O)CCCC(C)(C)O [(4E)-9-hydroxy-5,9-dimethyl-4-decenal] | Medium
48 | C[C@@H]1CC[C@H]2C(C)(C)[C@H]3C[C@@]12CC1OC(C)(C)OC13C (stereo partly drawn) [(4aR,5R,7aS,9R)-Octahydro-2,2,5,8,8,9a-hexamethyl-4H-4a,9-methanoazuleno[5,6-d]-1,3-dioxole] | High

Row | Molecule | Ingredient intensity
49 | C/C=C/C(=O)C1=C(C)CCCC1(C)C [(E)-1-(2,6,6-trimethyl-1-cyclohexenyl)but-2-en-1-one] | High
50 | C/C=C/C(=O)C1C(C)=CCCC1(C)C (stereo not drawn) [(E)-1-(2,6,6-trimethylcyclohex-2-en-1-yl)but-2-en-1-one] | Medium
51 | CCC(=O)/C=C/C1C(C)=CCCC1(C)C (stereo not drawn) [(E)-1-(2,6,6-trimethylcyclohex-2-en-1-yl)pent-1-en-3-one] | Low
52 | C/C=C/C(=O)C1=C(C)C=CCC1(C)C [(E)-1-(2,6,6-trimethylcyclohexa-1,3-dien-1-yl)but-2-en-1-one] | High
53 | C/C=C/c1ccc(OC)cc1 [(E)-1-methoxy-4-(prop-1-en-1-yl)benzene] | Medium
54 | C/C=C/c1ccc(O)c(OC)c1 [(E)-2-methoxy-4-(prop-1-en-1-yl)phenol] | High
55 | C=CC(C)(O)CC/C=C(\C)CCC=C(C)C (stereo not drawn) [(E)-3,7,11-trimethyldodeca-1,6,10-trien-3-ol] | High
56 | CC(=O)/C(C)=C/C1=C(C)CCCC1(C)C [(E)-3-methyl-4-(2,6,6-trimethylcyclohex-1-en-1-yl)but-3-en-2-one] | Medium
57 | CC(=O)/C(C)=C/C1C(C)=CCCC1(C)C (stereo not drawn) [(E)-3-methyl-4-(2,6,6-trimethylcyclohex-2-en-1-yl)but-3-en-2-one] | Medium
58 | CC1=CCC(/C=C/C(C)C(C)O)C1(C)C (stereo not drawn) [(E)-3-methyl-5-(2,2,3-trimethylcyclopent-3-en-1-yl)pent-4-en-2-ol] | Medium
59 | O=CCC/C=C1\CC2CC1[C@H]1CCC[C@@H]21 (stereo partly drawn) [(E)-4-((3aS,7aS)-hexahydro-1H-4,7-methanoinden-5(6H)-ylidene)butanal] | High
60 | C/C=C(\CC)CCC(C)CCO (stereo not drawn) [(E)-6-ethyl-3-methyloct-6-en-1-ol] | High
61 | CC1C/C=C/CCCCCCCC(=O)OCC1 (stereo not drawn) [(E)-13-methyloxacyclopentadec-10-en-2-one] | Medium
62 | CCCCCC/C=C/C(=O)OC [(E)-methyl non-2-enoate] | High
63 | CC1C/C=C\CCCCCCCCCC(=O)C1 (stereo not drawn) [(Z)-3-methylcyclopentadec-5-enone] | Medium
64 | O=Cc1ccc2c(c1)OCO2 [benzo[d][1,3]dioxole-5-carbaldehyde] | Low
65 | O=C(OC1CCCCC1)c1ccccc1O [cyclohexyl 2-hydroxybenzoate] | Low
66 | CCOC(=O)CC1(C)OCCO1 [ethyl 2-(2-methyl-1,3-dioxolan-2-yl)acetate] | Low
67 | CCOC(=O)C(C)C [ethyl 2-methylpropanoate] | Medium
68 | CCCCCCC(=O)OCC [ethyl heptanoate] | High
69 | CCCCCCCC(=O)OCC [ethyl octanoate] | High
70 | COC(=O)c1ccccc1N [methyl 2-aminobenzoate] | Medium
71 | CCCCCCC#CC(=O)OC [methyl non-2-ynoate] | High
72 | mercapto-para-menthan-3-one | High

From patent publication US20260272797A1, “FRAGRANCE COMPOSITION” (GIVAUDAN SA, priority 2023, published 2026)
